Assay results from paper PMC4360782, “A new high-performance heterologous fungal expression system based on regulatory elements from the Aspergillus terreus terrein gene cluster”.
These are yes or no findings as the source states them, for the method shown.

Biological target: TerR_(35-138), fragment of the Aspergillus terreus transcription factor TerR with the zinc binuclear cluster DNA-binding domain (Aspergillus terreus) (UniProt Q0D1P5)
Experiment: SEC-MALS; Superdex 200 10/300 GL column in series with a miniDawn TREOS static light scattering monitor and an Optilab T-rEX refractometer; molar mass calculated with ASTRA 6; both purified

binding: no binding
B1: TerR_(35-138), fragment of the Aspergillus terreus transcription factor TerR with the zinc binuclear cluster DNA-binding domain (domain or fragment, UniProt Q0D1P5 35-138)
chain: SSVRKKKWMSRRRGACDMCKSKKVRCDGGTPCSYCNLHDLRCEYQLSKKQQTNKPPVASAAEDVSIVPSYAENNGSGVTTQVPSPSDVQVLPELTANRGSGNAG
